In publication doi:10.1101/329912 one finds binding data, which are given here for one substance.

Protein sequences, listed by entry. Tags and fused reporters are not part of them.
UniProt Q15910, whole entry: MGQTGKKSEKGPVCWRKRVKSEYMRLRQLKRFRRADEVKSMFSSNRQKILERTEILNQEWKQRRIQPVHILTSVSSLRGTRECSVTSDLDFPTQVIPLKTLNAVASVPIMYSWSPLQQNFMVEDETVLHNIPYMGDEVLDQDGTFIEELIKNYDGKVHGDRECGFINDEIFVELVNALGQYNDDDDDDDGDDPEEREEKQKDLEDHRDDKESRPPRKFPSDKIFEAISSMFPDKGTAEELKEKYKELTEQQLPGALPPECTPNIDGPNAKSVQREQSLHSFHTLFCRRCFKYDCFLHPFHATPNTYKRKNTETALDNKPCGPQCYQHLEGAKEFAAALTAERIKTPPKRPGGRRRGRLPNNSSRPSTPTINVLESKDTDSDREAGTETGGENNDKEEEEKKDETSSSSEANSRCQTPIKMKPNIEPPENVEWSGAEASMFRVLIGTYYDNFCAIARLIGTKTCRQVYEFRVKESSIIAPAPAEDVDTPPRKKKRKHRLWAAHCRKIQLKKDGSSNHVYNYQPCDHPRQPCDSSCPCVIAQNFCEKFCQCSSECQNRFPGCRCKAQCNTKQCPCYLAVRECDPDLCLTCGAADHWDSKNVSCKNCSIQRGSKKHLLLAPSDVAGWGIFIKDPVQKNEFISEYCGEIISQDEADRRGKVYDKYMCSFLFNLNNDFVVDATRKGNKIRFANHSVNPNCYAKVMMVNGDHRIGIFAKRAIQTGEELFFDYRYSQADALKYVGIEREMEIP
UniProt Q04206, whole entry: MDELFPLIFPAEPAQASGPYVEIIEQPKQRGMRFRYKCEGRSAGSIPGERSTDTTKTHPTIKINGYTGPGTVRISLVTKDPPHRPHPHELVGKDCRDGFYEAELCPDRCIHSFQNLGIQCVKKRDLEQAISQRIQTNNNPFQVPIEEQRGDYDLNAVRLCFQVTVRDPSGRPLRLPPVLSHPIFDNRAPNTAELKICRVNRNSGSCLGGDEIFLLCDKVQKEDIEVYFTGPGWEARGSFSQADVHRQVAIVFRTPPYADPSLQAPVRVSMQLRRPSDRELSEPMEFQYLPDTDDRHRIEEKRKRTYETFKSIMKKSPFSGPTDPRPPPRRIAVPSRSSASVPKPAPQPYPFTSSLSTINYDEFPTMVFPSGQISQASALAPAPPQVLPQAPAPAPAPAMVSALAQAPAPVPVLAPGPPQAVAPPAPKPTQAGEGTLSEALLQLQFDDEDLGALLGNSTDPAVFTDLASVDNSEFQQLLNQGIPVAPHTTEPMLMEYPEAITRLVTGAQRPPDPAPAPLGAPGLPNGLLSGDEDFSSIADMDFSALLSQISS

Like-named read-outs stand apart in the source and are kept apart here. No constants are given. Whether binding was seen depends on the method and setting. Binding seen in cells or lysates may run through a third protein. Some results given as binding are weak or reduced against the parent protein; the word gives no strength.

Assay [1] addresses myc-tagged EZH2 (Enhancer of zeste homolog 2) (UniProt Q15910). The assay can be described thus: co-IP.
For assay [2] the target is unchanged. The experiment in a line: co-IP. The source holds these as a separate data set.

“FLAG-tagged p65 (from UniProt Q04206 1-551)”: the binding entry in assay [1] and in assay [2] was “binds” throughout.
